Measurements reported in PubChem BioAssay AID1259254 (NCATS, 2017)
The deposit covers about 59,000 reagents; below is a random part of them. About 1,550 of them (2.6%) count as active. 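G2 share is only a proxy for re-replication; each gene was hit by three separate siRNAs, and active genes were retested.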 Raw values vary from plate to plate and are shown uncorrected. Reagents against one gene are numbered here. Not given: the amount of reagent.

Assay: 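Genome-wide screen for genes that prevent DNA re-replication in cancer cells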 (primary screen)
Cell system: human HCT116 colorectal cancer cells
Reagents: single siRNA against human genes
Timing: 3 days
Measurement: 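Nuclei stained with Hoechst and imaged; cell-cycle phase assigned by DNA content; G2 share scaled per plate, non-targeting siRNA 0%, GMNN siRNA 100%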
Reading the numbers: G2 robust z-score and G2 cells, % of GMNN control: higher = more G2 cells, more excess DNA replication; raw share of cells in G2: higher = larger share of cells with G2 DNA content
Rule for the call: 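An siRNA counts as active if its G2 robust z-score lies at least 5 MADs above the screen median; here such calls match roughly 38% of GMNN control or more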

gene symbol	reagent no.	G2 robust z-score	G2 cells, % of GMNN control	raw share of cells in G2 (%)	outcome
DRGX	1	-0.468	-0.328	3.05	inactive
DRGX	2	0.689	7.81	6.61	inactive
DRGX	3	2.24	18.7	10	inactive
MAGEA10	1	-0.0646	2.51	4.26	inactive
MAGEA10	2	1.09	10.6	9.5	inactive
MAGEA10	3	-0.834	-2.9	3.08	inactive
HSP90AA1	1	1.85	16	9.8	inactive
HSP90AA1	2	0.429	5.98	7.65	inactive
HSP90AA1	3	-0.826	-2.85	2.07	inactive
PRKCQ-AS1	1	-0.383	0.274	3.91	inactive
PRKCQ-AS1	2	-0.759	-2.37	2.58	inactive
PRKCQ-AS1	3	-0.709	-2.02	3.95	inactive
WWC3	1	-0.543	-0.852	4.2	inactive
WWC3	2	-0.192	1.62	4.81	inactive
WWC3	3	0.504	6.51	5.21	inactive
XRN2	1	-0.529	-0.755	3.61	inactive
XRN2	2	-1.54	-7.87	1.52	inactive
XRN2	3	-0.00983	2.9	7.53	inactive
ETFBKMT	1	0.574	7	5.43	inactive
ETFBKMT	2	-0.776	-2.49	2.67	inactive
ETFBKMT	3	-0.642	-1.55	2.6	inactive
SNX8	1	1.04	10.3	6.42	inactive
SNX8	2	-1.4	-6.88	2.8	inactive
SNX8	3	6.27	47.1	18.4	active
ZCCHC14	1	0.985	9.9	8.87	inactive
ZCCHC14	2	-0.978	-3.91	2.52	inactive
ZCCHC14	3	-0.0945	2.3	4.04	inactive
GRPEL1P1	1	2.17	18.2	10.9	inactive
GRPEL1P1	2	0.685	7.79	5.83	inactive
GRPEL1P1	3	-0.5	-0.551	2.89	inactive
IRAG2	1	0.0603	3.39	4.93	inactive
IRAG2	2	-0.361	0.429	3.43	inactive
IRAG2	3	4.12	32	12.5	inactive
IRAG2	4	-0.856	-3.06	3.67	inactive
IRAG2	5	0.23	4.59	6.03	inactive
IRAG2	6	-0.551	-0.907	3.03	inactive
TMOD2	1	-0.24	1.28	4.34	inactive
TMOD2	2	-0.0065	2.92	5.65	inactive
TMOD2	3	1.43	13	7.37	inactive
PNPLA2	1	-0.823	-2.83	3.23	inactive
PNPLA2	2	1.27	11.9	10.1	inactive
PNPLA2	3	-0.232	1.33	3.45	inactive
EVI5L	1	-0.101	2.25	5.33	inactive
EVI5L	2	0.147	4	6.68	inactive
EVI5L	3	-0.711	-2.04	4.73	inactive
CEACAM16	1	-0.47	-0.338	4.49	inactive
CEACAM16	2	0.148	4.01	5.15	inactive
CEACAM16	3	-0.297	0.877	3.79	inactive
TPSD1	1	-1.1	-4.77	3.89	inactive
TPSD1	2	-0.702	-1.97	4.21	inactive
TPSD1	3	0.0115	3.05	5.05	inactive
ALK	1	0.614	7.29	8.02	inactive
ALK	2	2.93	23.6	13.4	inactive
ALK	3	-1.2	-5.51	2.08	inactive
CRCT1	1	-0.612	-1.34	3.29	inactive
CRCT1	2	-1.46	-7.33	2.63	inactive
CRCT1	3	6.33	47.5	21.8	active
FAM24A	1	-0.439	-0.123	1.78	inactive
FAM24A	2	1.21	11.5	8.69	inactive
FAM24A	3	-0.52	-0.693	3.12	inactive
FAM171A2	1	-0.242	1.27	4.1	inactive
FAM171A2	2	-0.151	1.9	3.78	inactive
FAM171A2	3	-0.878	-3.21	2.29	inactive
TBC1D9B	1	0.41	5.85	5.87	inactive
TBC1D9B	2	-1.21	-5.53	4.15	inactive
TBC1D9B	3	-0.997	-4.05	2.8	inactive
UXT	1	-0.703	-1.98	4.26	inactive
UXT	2	0.347	5.41	6.04	inactive
UXT	3	-0.0303	2.75	4.32	inactive

Only “G2 cells, % of GMNN control” (4 entries from above):
MAGEA10 #1: 2.51
MAGEA10 #2: 10.6
MAGEA10 #3: -2.9
HSP90AA1 #1: 16
